# The list shows only some results of the screen, not a fair sample: it gathers tests that were run many times, whatever their T/C, doses with no T/C, and many T/C values between a quarter and a half above the control. Other doses and runs of a compound stand elsewhere. T/C gives the treated animals as a percentage of the vehicle group. Some entries give survivors of the animals treated and no T/C: the source holds a T/C of zero for them, seemingly a mark for toxic or unscored doses. Some doses without a T/C left all or most animals alive at the check, yet need not have been tolerated: the source hardly ever lists a survival T/C far under the control, and the zero likely stands for such cases as well. Counts of survivors are from the toxicity check (mostly the fifth day) where no day follows; animals may have died later. Schedule codes are those of the source, taken here to give the interval after Q, in days (D) or hours (H), and the number of doses after X. Some doses were run more than once; their values stand side by side, smallest first. For survival time, this PubChem deposit counts one and a half times the control or more as active, and values a quarter to a half above the control carry no call in these data; other NCI protocols may use other cut-offs. Some T/C values are followed by the survivors on the day toxicity was checked, most often the fifth; where none is given, no animal had died by that day.
# Test system: CD2F1 mice, L1210 leukemia ip, survival T/C
# Experiment: NCI In Vivo Anticancer Drug Screen. Data for tumor model L1210 Leukemia (intraperitoneal) in CD2F1 (CDF1) mice
# Details: higher T/C = longer survival
# Method in brief: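 Mice carrying a transplanted tumor received test compound or vehicle alone. The value is the measurement in the treated group divided by that in the vehicle-treated control group.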
# [1] = T/C endpoint: mean survival time, dose: 200.0 mg/kg/injection, schedule: Q04DX003 (ip), vehicle: other
smiles,measurement,setting,value
Cc1c2ccncc2c(C)c2c1[nH]c1ccccc12,T/C,"T/C endpoint: mean survival time, dose: 3.13 mg/kg/injection, schedule: Q01DX009 (ip), vehicle: other",130 % of control
same,T/C,"T/C endpoint: mean survival time, dose: 3.13 mg/kg/injection, schedule: Q01DX009 (ip), vehicle: saline",140 % of control
same,T/C,"T/C endpoint: mean survival time, dose: 4.0 mg/kg/injection, schedule: Q01DX009 (ip), vehicle: saline with Tween-80",130 % of control
same,T/C,"T/C endpoint: mean survival time, dose: 6.25 mg/kg/injection, schedule: Q01DX009 (ip), vehicle: saline",147 % of control
same,T/C,"T/C endpoint: mean survival time, dose: 6.25 mg/kg/injection, schedule: Q04DX003 (ip), vehicle: saline",135 % of control
same,T/C,"T/C endpoint: mean survival time, dose: 8.0 mg/kg/injection, schedule: Q01DX009 (ip), vehicle: saline with Tween-80","126, 133, 135 % of control"
same,T/C,"T/C endpoint: mean survival time, dose: 10.0 mg/kg/injection, schedule: Q01DX009 (ip), vehicle: saline with Tween-80",147 % of control
same,T/C,"T/C endpoint: mean survival time, dose: 10.0 mg/kg/injection, schedule: Q04DX003 (ip), vehicle: saline with Tween-80",130 % of control
same,T/C,"T/C endpoint: mean survival time, dose: 12.5 mg/kg/injection, schedule: Q01DX009 (oral), vehicle: other",131 % of control
same,T/C,"T/C endpoint: mean survival time, dose: 12.5 mg/kg/injection, schedule: Q01DX009 (oral), vehicle: water",129 % of control
same,T/C,"T/C endpoint: mean survival time, dose: 12.5 mg/kg/injection, schedule: Q04DX003 (ip), vehicle: distilled water + Tween-80",138 % of control
same,T/C,"T/C endpoint: mean survival time, dose: 12.5 mg/kg/injection, schedule: Q04DX003 (ip), vehicle: other, evaluated on day 30","123, 125, 127 % of control"
same,T/C,"T/C endpoint: mean survival time, dose: 12.5 mg/kg/injection, schedule: Q04DX003 (ip), vehicle: other, evaluated on day 60",129 % of control
same,T/C,"T/C endpoint: mean survival time, dose: 12.5 mg/kg/injection, schedule: Q04DX003 (ip), vehicle: saline",136 % of control
same,T/C,"T/C endpoint: mean survival time, dose: 16.0 mg/kg/injection, schedule: Q01DX009 (ip), vehicle: saline with Tween-80","138, 145, 148 % of control"
same,T/C,"T/C endpoint: mean survival time, dose: 20.0 mg/kg/injection, schedule: Q04DX003 (ip), vehicle: saline with Tween-80",143 % of control
same,T/C,"T/C endpoint: mean survival time, dose: 25.0 mg/kg/injection, schedule: Q01DX009 (oral), vehicle: saline",139 % of control
same,T/C,"T/C endpoint: mean survival time, dose: 25.0 mg/kg/injection, schedule: Q04DX003 (ip), vehicle: distilled water + Tween-80",136 % of control
same,T/C,"T/C endpoint: mean survival time, dose: 25.0 mg/kg/injection, schedule: Q04DX003 (ip), vehicle: other, evaluated on day 30","126, 138, 141 % of control"
same,T/C,"T/C endpoint: mean survival time, dose: 25.0 mg/kg/injection, schedule: Q04DX003 (ip), vehicle: other, evaluated on day 60",189 % of control
same,T/C,"T/C endpoint: mean survival time, dose: 25.0 mg/kg/injection, schedule: Q04DX003 (ip), vehicle: saline with Tween-80",138 % of control
same,T/C,"T/C endpoint: mean survival time, dose: 25.0 mg/kg/injection, schedule: Q04DX003 (oral), vehicle: other",125 % of control
same,T/C,"T/C endpoint: mean survival time, dose: 25.0 mg/kg/injection, schedule: Q04DX003 (oral), vehicle: water",131 % of control
same,T/C,"T/C endpoint: mean survival time, dose: 32.0 mg/kg/injection, schedule: Q01DX009 (ip), vehicle: saline with Tween-80",130 and 143 % of control
same,T/C,"T/C endpoint: mean survival time, dose: 40.0 mg/kg/injection, schedule: Q01DX001 (ip), vehicle: water",129 % of control
same,T/C,"T/C endpoint: mean survival time, dose: 40.0 mg/kg/injection, schedule: Q01DX009 (ip), vehicle: saline with Tween-80",132 % of control
same,T/C,"T/C endpoint: mean survival time, dose: 50.0 mg/kg/injection, schedule: Q01DX009 (oral), vehicle: other",125 % of control [9 of 10 alive]
same,T/C,"T/C endpoint: mean survival time, dose: 50.0 mg/kg/injection, schedule: Q04DX003 (ip), vehicle: distilled water + Tween-80",148 % of control
same,T/C,"T/C endpoint: mean survival time, dose: 50.0 mg/kg/injection, schedule: Q04DX003 (ip), vehicle: other, evaluated on day 30","149, 155, 161 % of control"
same,T/C,"T/C endpoint: mean survival time, dose: 50.0 mg/kg/injection, schedule: Q04DX003 (ip), vehicle: other, evaluated on day 60",180 % of control
same,T/C,"T/C endpoint: mean survival time, dose: 50.0 mg/kg/injection, schedule: Q04DX003 (ip), vehicle: water",133 % of control [9 of 10 alive]
same,T/C,"T/C endpoint: mean survival time, dose: 50.0 mg/kg/injection, schedule: Q04DX003 (oral), vehicle: other",134 % of control
same,T/C,"T/C endpoint: mean survival time, dose: 50.0 mg/kg/injection, schedule: Q04DX003 (oral), vehicle: saline",140 % of control
same,survivor count,"T/C endpoint: mean survival time, dose: 100.0 mg/kg/injection, schedule: Q01DX009 (ip), vehicle: other",5 of 10
same,T/C,"T/C endpoint: mean survival time, dose: 100.0 mg/kg/injection, schedule: Q01DX009 (ip), vehicle: saline",129 % of control
same,survivor count,"T/C endpoint: mean survival time, dose: 100.0 mg/kg/injection, schedule: Q01DX009 (ip), vehicle: water",7 of 10
same,survivor count,"T/C endpoint: mean survival time, dose: 100.0 mg/kg/injection, schedule: Q01DX009 (oral), vehicle: other",10 of 10
same,survivor count,"T/C endpoint: mean survival time, dose: 100.0 mg/kg/injection, schedule: Q01DX009 (oral), vehicle: water",10 of 10
same,survivor count,"T/C endpoint: mean survival time, dose: 100.0 mg/kg/injection, schedule: Q04DX003 (ip), vehicle: water",9 of 10
same,survivor count,"T/C endpoint: mean survival time, dose: 160.0 mg/kg/injection, schedule: Q01DX001 (ip), vehicle: water",6 of 6
same,survivor count,"T/C endpoint: mean survival time, dose: 200.0 mg/kg/injection, schedule: Q01DX009 (oral), vehicle: other",6 of 10
same,survivor count,"T/C endpoint: mean survival time, dose: 200.0 mg/kg/injection, schedule: Q01DX009 (oral), vehicle: saline",10 of 10
same,survivor count,"T/C endpoint: mean survival time, dose: 200.0 mg/kg/injection, schedule: Q01DX009 (oral), vehicle: water",8 of 10
same,T/C,[1],126 % of control
same,survivor count,[1],4 of 10
same,T/C,"T/C endpoint: mean survival time, dose: 200.0 mg/kg/injection, schedule: Q04DX003 (ip), vehicle: saline",147 % of control
same,survivor count,"T/C endpoint: mean survival time, dose: 200.0 mg/kg/injection, schedule: Q04DX003 (ip), vehicle: water",5 of 10
same,survivor count,"T/C endpoint: mean survival time, dose: 200.0 mg/kg/injection, schedule: Q04DX003 (oral), vehicle: other",9 of 10
same,survivor count,"T/C endpoint: mean survival time, dose: 200.0 mg/kg/injection, schedule: Q04DX003 (oral), vehicle: water",4 of 10 and 10 of 10
same,survivor count,"T/C endpoint: mean survival time, dose: 240.0 mg/kg/injection, schedule: Q01DX001 (ip), vehicle: water",0 of 6
same,survivor count,"T/C endpoint: mean survival time, dose: 400.0 mg/kg/injection, schedule: Q04DX003 (oral), vehicle: other",7 of 10
same,survivor count,"T/C endpoint: mean survival time, dose: 400.0 mg/kg/injection, schedule: Q04DX003 (oral), vehicle: saline",10 of 10
same,survivor count,"T/C endpoint: mean survival time, dose: 400.0 mg/kg/injection, schedule: Q04DX003 (oral), vehicle: water",2 of 10 and 8 of 10
same,T/C,"T/C endpoint: median survival time, dose: 40.0 mg/kg/injection, schedule: Q01DX001 (ip), vehicle: water",142 % of control
same,survivor count,"T/C endpoint: median survival time, dose: 160.0 mg/kg/injection, schedule: Q01DX001 (ip), vehicle: water",1 of 6
O=[N+]([O-])c1c(O)cc(O)c2ccccc12,survivor count,"T/C endpoint: mean survival time, dose: 100.0 mg/kg/injection, schedule: Q01DX001 (ip), vehicle: saline",0 of 6
same,survivor count,"T/C endpoint: mean survival time, dose: 200.0 mg/kg/injection, schedule: Q01DX001 (ip), vehicle: saline",0 of 6
same,survivor count,"T/C endpoint: mean survival time, dose: 400.0 mg/kg/injection, schedule: Q01DX001 (ip), vehicle: saline",0 of 6
Oc1cc(N2CC2)c(O)cc1N1CC1,T/C,"T/C endpoint: mean survival time, dose: 0.3 mg/kg/injection, schedule: Q01DX009 (ip), vehicle: saline",141 % of control
same,T/C,"T/C endpoint: mean survival time, dose: 0.6 mg/kg/injection, schedule: Q01DX009 (ip), vehicle: saline",137 % of control
same,T/C,"T/C endpoint: mean survival time, dose: 1.25 mg/kg/injection, schedule: Q01DX009 (ip), vehicle: saline",127 % of control
COc1cc(C=Nc2ccc(-c3nc(C)sc3C)cc2)ccc1N(CCCl)CCCl,survivor count,"T/C endpoint: mean survival time, dose: 100.0 mg/kg/injection, schedule: Q01DX001 (ip), vehicle: carboxymethylcellulose (CMC)",2 of 4
Cc1cccn(O)c1=NC(=O)c1ccccc1,survivor count,"T/C endpoint: mean survival time, dose: 100.0 mg/kg/injection, schedule: Q01DX009 (ip), vehicle: saline with Tween-80",3 of 6
same,survivor count,"T/C endpoint: mean survival time, dose: 200.0 mg/kg/injection, schedule: Q01DX009 (ip), vehicle: saline with Tween-80",0 of 6
same,survivor count,"T/C endpoint: mean survival time, dose: 400.0 mg/kg/injection, schedule: Q01DX009 (ip), vehicle: saline with Tween-80",0 of 6
CC(=O)OC1CCC2(C)C(CCC3C2CCC2(C)C3CC3OC(CCC(C)O)C(C)C32)C1 (centres undefined),survivor count,"T/C endpoint: mean survival time, dose: 200.0 mg/kg/injection, schedule: Q04DX002 (ip), vehicle: saline with Tween-80",3 of 3
same,survivor count,"T/C endpoint: mean survival time, dose: 400.0 mg/kg/injection, schedule: Q04DX002 (ip), vehicle: saline with Tween-80",2 of 3
COC1OC(COC(=O)c2ccc([N+](=O)[O-])cc2)C(SC#N)C1O (centres undefined),survivor count,"T/C endpoint: mean survival time, dose: 75.0 mg/kg/injection, schedule: Q01DX001 (ip), vehicle: saline",3 of 6
same,survivor count,"T/C endpoint: mean survival time, dose: 300.0 mg/kg/injection, schedule: Q01DX001 (ip), vehicle: saline",0 of 6

# Reference: PubChem BioAssay AID256 (DTP/NCI, 2004)
